Library screen at single concentrations

Chains of the proteins cited; added tags and fusions are not shown. Residues count along the entry.
UniProt A4I591, 1-473: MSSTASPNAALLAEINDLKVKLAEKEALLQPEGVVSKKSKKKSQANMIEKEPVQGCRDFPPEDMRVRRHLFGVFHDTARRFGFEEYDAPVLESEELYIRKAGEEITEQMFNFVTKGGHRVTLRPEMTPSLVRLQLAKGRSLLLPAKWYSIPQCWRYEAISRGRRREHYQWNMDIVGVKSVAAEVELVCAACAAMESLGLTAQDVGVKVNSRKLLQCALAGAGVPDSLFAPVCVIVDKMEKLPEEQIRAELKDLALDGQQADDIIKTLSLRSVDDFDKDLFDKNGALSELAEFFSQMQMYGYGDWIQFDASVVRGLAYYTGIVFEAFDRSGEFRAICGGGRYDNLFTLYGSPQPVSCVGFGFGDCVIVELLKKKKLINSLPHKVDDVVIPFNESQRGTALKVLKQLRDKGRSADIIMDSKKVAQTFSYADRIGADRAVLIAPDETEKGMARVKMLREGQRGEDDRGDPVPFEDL
UniProt I6X8D2, whole entry: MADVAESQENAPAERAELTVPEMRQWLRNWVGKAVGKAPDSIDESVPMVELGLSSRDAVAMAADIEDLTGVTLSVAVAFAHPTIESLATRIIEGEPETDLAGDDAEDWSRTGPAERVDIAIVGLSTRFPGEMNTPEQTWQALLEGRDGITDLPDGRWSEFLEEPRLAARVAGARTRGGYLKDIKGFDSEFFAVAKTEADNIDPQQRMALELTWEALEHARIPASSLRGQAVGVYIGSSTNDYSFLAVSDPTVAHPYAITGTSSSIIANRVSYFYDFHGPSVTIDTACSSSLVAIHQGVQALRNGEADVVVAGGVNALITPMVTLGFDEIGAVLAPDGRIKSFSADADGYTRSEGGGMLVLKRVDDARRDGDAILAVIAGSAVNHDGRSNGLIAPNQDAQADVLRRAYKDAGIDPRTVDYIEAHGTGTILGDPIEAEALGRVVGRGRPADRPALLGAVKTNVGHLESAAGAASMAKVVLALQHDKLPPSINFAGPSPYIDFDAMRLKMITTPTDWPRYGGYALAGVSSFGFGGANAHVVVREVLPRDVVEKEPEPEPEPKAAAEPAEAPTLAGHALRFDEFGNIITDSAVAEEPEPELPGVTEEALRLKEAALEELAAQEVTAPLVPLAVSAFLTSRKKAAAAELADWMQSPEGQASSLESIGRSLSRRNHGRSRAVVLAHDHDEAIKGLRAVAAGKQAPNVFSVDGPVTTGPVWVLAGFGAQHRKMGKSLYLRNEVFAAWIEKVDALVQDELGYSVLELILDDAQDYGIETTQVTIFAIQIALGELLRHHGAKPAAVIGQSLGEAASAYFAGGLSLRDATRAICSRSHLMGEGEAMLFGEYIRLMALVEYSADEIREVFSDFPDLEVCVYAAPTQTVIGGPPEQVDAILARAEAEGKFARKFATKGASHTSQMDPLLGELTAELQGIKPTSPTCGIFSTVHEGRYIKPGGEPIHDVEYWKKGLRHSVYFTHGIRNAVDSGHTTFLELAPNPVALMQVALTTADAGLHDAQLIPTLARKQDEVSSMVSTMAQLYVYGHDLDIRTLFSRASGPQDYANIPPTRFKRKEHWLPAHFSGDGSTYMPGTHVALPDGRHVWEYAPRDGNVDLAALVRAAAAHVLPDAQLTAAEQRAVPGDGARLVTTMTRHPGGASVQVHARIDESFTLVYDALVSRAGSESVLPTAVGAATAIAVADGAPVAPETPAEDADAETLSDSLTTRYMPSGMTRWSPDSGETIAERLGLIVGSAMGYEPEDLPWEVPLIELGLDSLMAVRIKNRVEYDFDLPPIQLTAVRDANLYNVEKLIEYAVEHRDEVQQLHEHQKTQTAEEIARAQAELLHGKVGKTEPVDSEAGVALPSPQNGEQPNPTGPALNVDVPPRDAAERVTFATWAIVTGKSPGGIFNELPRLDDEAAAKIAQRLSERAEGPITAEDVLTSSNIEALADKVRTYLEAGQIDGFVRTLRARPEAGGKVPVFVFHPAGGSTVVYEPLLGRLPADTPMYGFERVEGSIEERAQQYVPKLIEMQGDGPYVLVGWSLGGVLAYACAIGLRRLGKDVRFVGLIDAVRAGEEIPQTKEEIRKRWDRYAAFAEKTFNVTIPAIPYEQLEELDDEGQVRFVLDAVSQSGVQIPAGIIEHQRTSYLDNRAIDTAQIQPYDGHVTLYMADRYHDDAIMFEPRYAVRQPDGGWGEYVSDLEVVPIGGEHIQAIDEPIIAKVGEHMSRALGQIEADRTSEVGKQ

Source: ChEMBL document CHEMBL3988442, “University of Dundee, Small-Polar-MMV Screening Library” (2021).

LiHisRS: 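Enzyme assay of histidyl-tRNA synthetase; the read-out is not stated. Target: Histidine-tRNA ligase, Leishmania infantum (UniProt A4I591). Tested at 30 µM. The record gives no direction; compounds that gave an IC50 in retests scored well above the rest, so higher reads as stronger inhibition. The assay is labelled LdHisRS but filed under L. infantum. Size under these conditions: about 69,000 compounds, about 410 of them at 50% or above in at least one test.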
Pks13 thioesterase: 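Enzyme assay of the thioesterase domain of polyketide synthase 13; the read-out is not stated. Target: Polyketide synthase Pks13, Mycobacterium tuberculosis (UniProt I6X8D2). Compounds at 30 µM. Higher reads as stronger inhibition (inferred from which compounds were picked for retests). Size under these conditions: about 67,000 compounds, about 300 of them at 50% or above in at least one test.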
Leishmania in macrophages: 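Cell assay of Leishmania donovani living inside macrophages; the read-out is not stated. Compounds at 30 µM. The record gives no direction; compounds that gave an IC50 in retests scored well above the rest, so higher reads as stronger inhibition. About 69,000 compounds were tested under these conditions; 1.5% (about 1,000) showed 50% or more at least once.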

Each number is a percent effect as filed. The record does not define 0% and 100%; most values in the screen are far below 50% and negative numbers occur (in some assays of this library far below -100). The compounds are a random part of those screened. Two or more numbers in one place are separate tests of the same structure; such repeats can differ widely.

SMILES: COc1cccc(C(=O)N2CCN(C(=O)CCCn3ccnc3)CC2)c1
LiHisRS: -5.714
Pks13 thioesterase: -3.327
Leishmania in macrophages: -14.19

SMILES: NC(=O)c1nc2c(s1)CCN(C(=O)Nc1ccccc1)CC2
LiHisRS: 7.547
Pks13 thioesterase: 6.147
Leishmania in macrophages: 10.23

SMILES: CCCN1CCCN(c2ccc(-n3ccc(C)n3)nn2)CC1
LiHisRS: 11.69
Pks13 thioesterase: -21.59
Leishmania in macrophages: 5.983

SMILES: Cc1cc(CN2C[C@@H]3CN(Cc4ccsc4)CCO[C@@H]3C2)no1
LiHisRS: 12.28
Pks13 thioesterase: -21.57

SMILES: CN(C)CC(=O)N1CCc2ncnc(-c3ccoc3)c2CC1
LiHisRS: 12.28
Pks13 thioesterase: -35.33
Leishmania in macrophages: 12.9 & 3.597

SMILES: Cc1nnc(N2CCCC3(CN(c4ccccn4)CCO3)C2)o1.O=C(O)C(F)(F)F (stereo not shown)
Leishmania in macrophages: 39.74

SMILES: CCn1nc(C)c2c1cnn2CC(=O)Nc1ccc(OC)cc1C
LiHisRS: -14.29
Pks13 thioesterase: -3.422
Leishmania in macrophages: 7.898

SMILES: Cc1ncc(CN(C)c2nc3c(cnn3C(C)(C)C)c(=O)[nH]2)s1
LiHisRS: 3.509
Pks13 thioesterase: -16.7
Leishmania in macrophages: 11.23

SMILES: CC(=O)N1CCC2(CC1)CN(C(=O)c1cccnc1)c1ccc(F)cc12.O=C(O)C(F)(F)F
Leishmania in macrophages: 20.37

SMILES: CC(C)c1nccn1C1CCCN(C(=O)c2ccc(=O)n(C)n2)C1 (stereo not shown)
LiHisRS: -6.25
Pks13 thioesterase: -12.89
Leishmania in macrophages: 7.397

SMILES: COCCC(=O)N1CCC2(COCc3cnc(-c4cccnc4)nc32)C1 (stereo not shown)
LiHisRS: 11.82
Pks13 thioesterase: -23.52
Leishmania in macrophages: 36.82

SMILES: CCC(C(=O)Nc1ccc2cn(CC)nc2c1)N1CCCC1=O (stereo not shown)
LiHisRS: 21.05
Pks13 thioesterase: -34.93
Leishmania in macrophages: -4.78

SMILES: Cc1nc(CN2CCOCC3(CCN(c4cccnc4)CC3)C2)cs1.O=C(O)C(F)(F)F.O=C(O)C(F)(F)F
Leishmania in macrophages: 19.09

SMILES: O=C(c1ccsc1)N1CCC2(CC1)COCCN(Cc1ccncc1)C2
LiHisRS: 11
Pks13 thioesterase: -4.57

SMILES: COCCC(=O)NCCc1nc2cc(-c3ccc(OC)cc3)ncn2n1
LiHisRS: 8.392
Pks13 thioesterase: -3.936
Leishmania in macrophages: -19.84

SMILES: Cc1nccn1-c1ccc(N2CCC(N[C@H](C)C(C)C)CC2)cc1
LiHisRS: 9.375
Pks13 thioesterase: -8.219
Leishmania in macrophages: 12.37

SMILES: CCN(CC(=O)NC)C(=O)Cc1nc(-c2ccco2)oc1C
LiHisRS: 20.39
Pks13 thioesterase: -11.73
Leishmania in macrophages: 6.745

SMILES: Cc1cnc(N2C[C@H]3CCN(CC4CC4)C[C@H]3C2)nc1
LiHisRS: 4
Pks13 thioesterase: 10.98

SMILES: Cc1ccccc1CC(=O)NS(=O)(=O)c1cccc2cnccc12
LiHisRS: -7.407
Pks13 thioesterase: 8.932
Leishmania in macrophages: 2.21

SMILES: O=C(c1ccc(F)c(Br)c1)N1CCCN2CCCC2C1 (stereo not shown)
LiHisRS: 4.505
Pks13 thioesterase: -2.161
Leishmania in macrophages: 5.297

SMILES: Cc1cccc(CN2C(=O)CCC23CCN(c2ccccn2)CC3)n1.O=C(O)C(F)(F)F.O=C(O)C(F)(F)F
Leishmania in macrophages: 7.621

SMILES: O=S(=O)(N1CCCC1)N1CCN(CC2CCCO2)CC1 (stereo not shown)
LiHisRS: 5.618
Pks13 thioesterase: -5.671
Leishmania in macrophages: 17.07

SMILES: Cc1ccc(N2CCCC(Nc3nn4cc(C)nc4s3)C2)nn1 (stereo not shown)
LiHisRS: 24.78
Pks13 thioesterase: -16.54
Leishmania in macrophages: 2.451

SMILES: CC(C)Nc1nc2c(cc1C(=O)NCC1CC1)CCN(CC1CC1)CC2
LiHisRS: 1.37
Pks13 thioesterase: 69.44

SMILES: CCOc1ccccc1NC(=O)Nc1cc(N2CCCC2)ncn1
LiHisRS: 6.957
Pks13 thioesterase: -17.44
Leishmania in macrophages: 12.76 & 14.37

SMILES: [H][C@]12CC[C@]([H])(CN(C(C)=O)C1)N(S(=O)(=O)c1ccc(F)cc1Cl)C2
Leishmania in macrophages: 22.56